# PubChem BioAssay AID2685 (National Center for Advancing Translational Sciences (NCATS), 2010)
# Some of the results follow. Shown are side measurements of this screen, not its main read-out; they come without a call. The list favours compounds with an active or inconclusive main result. Words in brackets tell the shape of the fitted curve; partial curves, single points and poor fits give uncertain potencies.
# Experiment: qHTS Assay for Lipid Storage Modulators in Drosophila S3 Cells;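 as to cell number change: cells counted by Cell Tracker Red CMTPX staining in the red channel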
# Details: BODIPY lipid droplet fluorescence, 18-24 h; for cell number change: measured here: cell count max response, cells fed with added oleic acid
# How it was run: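 Drosophila S3 cells loaded with oleic acid (400 uM, as added) and compounds at several concentrations; lipid droplets imaged by 488-nm laser-scanning cytometry, 500–530 nm intensity and object ratio to cell channel. Percent activity normalized to 20 uM Triacsin C.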
# [1] = measured here: cell number channel AC50, cells fed with added oleic acid
# [2] = measured here: lipid fluorescence (Fed channel) AC50, cells fed with added oleic acid
Compound,cell number change [%],AC50 [1],AC50 [2]
CCOc1ccc(CCNC(=O)Cn2c(=O)c3cccn3c3cccnc32)cc1,35.1,"25.9 µM [rising, single point]",–
COc1cc2nc(/C=C/c3ccc(N(C)C)cc3)sc2cc1SC,-14.4,–,"29.1 µM [falling, single point]"
CCC(C)(C)c1ccc(OCCCC[n+]2ccccc2)c(C(C)(C)CC)c1,-87.4,"20.6 µM [falling, partial curve]","20.6 µM [falling, partial curve]"
COC(=O)COc1ccc(C2NC(=O)NC(c3ccccc3)=C2C(C)=O)cc1OC (stereo not given),-11.2,–,"0.82 µM [falling, full curve, poor fit]"
COC(=O)C(C(=O)OC)=C(/C=C/C=C/N(C)C)N(C)C,-12.4,–,"0.164 µM [falling, full curve, poor fit]"
CCc1noc(C)c1C(=O)Nc1nc(-c2ccc(OC)cc2)cs1,–,"2.06 µM [rising, partial curve]",–
C#CCOCCOCCOCCNc1nc(N2CCN(C(=O)[C@H](CCC(=O)O)n3cc(C(N)CO)nn3)CC2)nc(N2CCN(C(=O)[C@H](CCCCN)n3cc(C(N)[C@H](C)CC)nn3)CC2)n1 (stereo not given in full),–,"6.51 µM [falling, single point]","6.51 µM [falling, single point]"
CCCn1c(SCC(=O)Nc2nc3ccccc3s2)nc2c1c(=O)n(C)c(=O)n2C,19.9,–,"1.64 µM [rising, partial curve]"
N#CCC(CNc1ncc(C(F)(F)F)cc1Cl)OC(=O)c1cccc([N+](=O)[O-])c1 (stereo not given),-17.4,"6.51 µM [falling, single point]",–
Cc1cc(C)c(O)c(C2(O)C(=O)c3ccccc3C2=O)c1,–,–,"0.13 µM [falling, full curve, poor fit]"
O=C(CSc1nc2ccccc2o1)N1c2ccccc2Sc2ccc(C(F)(F)F)cc21,4.93,–,"2.31 µM [rising, partial curve, poor fit]"
CC(C)(Cc1ccccc1)/[N+]([O-])=C\c1ccccc1,-17.2,–,"6.51 µM [rising, single point]"
Cc1cc(C(=O)CSc2nc(N)cc(N)n2)c(C)n1-c1cccc(C(F)(F)F)c1,-33.5,"16.4 µM [falling, single point]","0.00461 µM [falling, full curve, poor fit]"
CC(C)c1ccc(NC(=O)CC2Oc3ccccc3NC2=O)cc1 (stereo not given),-20.5,–,"29.1 µM [falling, single point]"
CCCCc1ccc(NC(=O)C2CCN(S(C)(=O)=O)CC2)cc1,-1.75,–,"9.2 µM [rising, single point]"
O=C(Cn1c(=O)sc2ccccc21)Nc1ccc2c(c1)OCCO2,17.1,–,"1.64 µM [rising, partial curve]"
O=C1NC(=O)/C(=C/c2ccccc2Oc2ccc(Cl)cc2)S1,-76.6,"32.6 µM [falling, single point]",–
CC(C)Oc1ccc(CN2CCCC(CO)(Cc3ccc(F)cc3)C2)cc1 (stereo not given),-28.3,–,"3.66 µM [falling, full curve]"
Cc1cc(C)cc(N2C(=O)CC(n3nc(C)cc3C)C2=O)c1 (stereo not given),–,–,"1.46 µM [falling, partial curve]"

# Single entries from the entries so far.
# Under cell number change [%], Cc1cc(C(=O)CSc2nc(N)cc(N)n2)c(C)n1-c1cccc(C(F)(F)F)c1 shows -33.5
# Under AC50 [2], COC(=O)C(C(=O)OC)=C(/C=C/C=C/N(C)C)N(C)C shows 0.164 µM [falling, full curve, poor fit]
# Under AC50 [2], C#CCOCCOCCOCCNc1nc(N2CCN(C(=O)[C@H](CCC(=O)O)n3cc(C(N)CO)nn3)CC2)nc(N2CCN(C(=O)[C@H](CCCCN)n3cc(C(N)[C@H](C)CC)nn3)CC2)n1 (stereo not given in full) shows 6.51 µM [falling, single point]

# (listing goes on)

Compound,cell number change [%],AC50 [1],AC50 [2]
CCN1CCN(S(=O)(=O)c2ccc(Cl)c(C(=O)Nc3cc(Cl)ccc3N3CCOCC3)c2)CC1,–,–,"29.1 µM [falling, single point]"
Cn1cc(C(=O)N2CCCCC2)c(=O)c2cc(S(=O)(=O)N3CCCC3)ccc21,38.9,"23.1 µM [rising, single point]","5.8 µM [falling, single point]"
COc1ccc(C2CC3(CC(C)(C)NC(SC)=N3)Oc3cc(O)cc(C)c32)cc1 (stereo not given),–,–,"29.1 µM [falling, single point]"
CCSCCNC(=O)c1cncc(Br)c1,2.18,–,–
Cc1cc(NN)nc(NS(=O)(=O)c2ccccc2Cl)n1,12.3,–,"0.116 µM [rising, full curve, poor fit]"
CCOC(=O)CC1C(=O)NCCN1C(=O)c1cccc(OC)c1 (stereo not given),–,–,"18.4 µM [rising, partial curve, poor fit]"
COc1cc(C(=O)Nc2c(C(=O)O)[nH]c3ccc(C)cc23)cc(OC)c1OC,9.93,–,–
COC(=O)C(NC(=O)c1ccco1)(Nc1nc(C)cs1)C(F)(F)F (stereo not given),-3.7,–,"6.51 µM [rising, single point]"
O=C(Cn1cnc2c(cnn2-c2ccccc2)c1=O)NC1CCCC1,57.8,"13 µM [rising, partial curve]","6.51 µM [rising, single point]"
Cc1ccc(S(=O)(=O)N2CCN(C(=O)CN3C(=O)c4ccc([N+](=O)[O-])cc4C3=O)CC2)cc1C,4.15,–,"0.0731 µM [rising, partial curve, poor fit]"
C=CCc1cc(C)ccc1OCCOCCC(C(=O)OCC)C(=O)OCC,7.24,–,"20.6 µM [rising, single point]"
Cc1cc(=O)[nH]c(Nc2ccc(N(C)C)cc2)n1,1.05,"0.00461 µM [rising, full curve, poor fit]","29.1 µM [rising, single point]"
CCn1c(SCC(=O)c2cc(C)ccc2C)nc2cc(S(=O)(=O)N3CCOCC3)ccc21,83.3,"6.51 µM [falling, partial curve, poor fit]",–
Cc1cc(NC(=O)c2cc3ncc(Br)cn3n2)no1,-6.27,–,"0.651 µM [falling, single point]"
CC1(C)CC(=O)CC2(C1)NCC(c1ccccc1Cl)c1c2[nH]c2ccccc12 (stereo not given),-1.36,–,–
Cc1c(Cc2ccccc2)c(=O)oc2cc(O)cc(O)c12,33.5,"32.6 µM [rising, single point]","29.1 µM [rising, single point]"
Cc1ccnc(NC(=O)CCC(=O)N(CC(=O)NCCc2ccccc2)c2ccc(F)cc2)c1,1.74,–,"0.366 µM [rising, partial curve, poor fit]"
CCn1cc(C(=O)N(CCC(C)C)c2c(N)n(Cc3ccccc3)c(=O)[nH]c2=O)c(=O)c2ccc(C)nc21,-26.3,–,"32.6 µM [falling, single point]"
O=C1NC(=O)c2cc(NC(=O)C3CCCO3)ccc21 (stereo not given),-0.831,–,"0.58 µM [rising, full curve]"

Compound,cell number change [%],AC50 [1],AC50 [2]
COC(=O)CSc1nnc(-c2ccccc2OC)n1-c1ccc(C)cc1,32.6,"7.31 µM [rising, full curve, poor fit]","7.31 µM [rising, partial curve]"
CCc1cc(=O)oc2c(C)c(OCC(=O)NCc3ccccn3)ccc12,-15.3,"2.59 µM [falling, partial curve, poor fit]","6.51 µM [falling, single point]"
O=C(COc1ccc(F)c(Cl)c1)N1CCN(c2ccccn2)CC1,8.79,–,"0.92 µM [rising, full curve, poor fit]"
N#Cc1ncc(C(F)(F)F)cc1Sc1ccc(N)cc1,95,"4.61 µM [rising, partial curve]","0.103 µM [rising, full curve, poor fit]"
Cc1ccc2c(c1)[C@@H]1CN(C)CC[C@@H]1N2S(=O)(=O)c1ccc(F)cc1,-18.6,–,–
CCOC(=O)c1c(N2C(=O)C=CC2=O)sc(C)c1C,-73.6,–,"0.00461 µM [falling, full curve, poor fit]"
N/C(=N\OC(=O)C1CCCCC1)c1cccc([N+](=O)[O-])c1,-1.6,–,"18.4 µM [rising, single point]"
C[C@H](NC(=O)c1ccccc1Cl)C(=O)OCC(=O)N1CCN(c2ccccc2)CC1,8.51,–,"0.146 µM [rising, full curve, poor fit]"
COCC(C)n1c(C)cc(C(=O)CSc2nnc(Nc3ccccc3F)s2)c1C (stereo not given),-8.58,–,–
CC(=O)Nc1ccc(S(=O)(=O)NCCC(=O)OC(C)C(=O)NC2(C#N)CCCCC2)cc1 (stereo not given),–,–,"16.4 µM [rising, single point]"
O=C1C(C2=NC(c3ccccn3)C3C(=O)N(c4ccc(Cl)cc4Cl)C(=O)C23)=C(O)c2ccccc21 (stereo not given),-31.1,"5.8 µM [falling, full curve, poor fit]",–
Cc1cccc(C(C)C)c1NC(=O)C(C)OC(=O)Cc1n[nH]c(=O)c2ccccc12 (stereo not given),34.4,"29.1 µM [rising, single point]","29.1 µM [rising, single point]"
CCN1CCN(C(=O)CCc2nnc(CCc3ccccc3OC)o2)[C@@H](C)C1=O,-5.34,"6.51 µM [rising, single point]",–
COc1ccc(O)c(C(=O)c2cnc3c(c2)c(=O)[nH]c(=O)n3C)c1,19,–,–
CCOC(=O)c1cc(C)[nH]c1C,22.6,–,"20.6 µM [rising, single point]"
O=C(O)c1ccccc1S(=O)(=O)c1ccccc1CO,-13.4,–,"0.00461 µM [falling, full curve, poor fit]"
CC(=O)NC1C(=O)N=C(SCc2ccccc2)NC1=O (stereo not given),-8.83,–,"18.4 µM [falling, partial curve]"
O=C(/C=C/c1ccc(F)cc1)N1CCN(S(=O)(=O)/C=C/c2ccccc2)CC1,3.69,–,–
CN(C(=O)COC(=O)c1ccccc1OCc1ccc(Cl)cc1)c1c(N)n(Cc2ccccc2)c(=O)[nH]c1=O,30.9,"4.61 µM [rising, full curve]",–
